Test [1] concerns the target MD2004 VP1 mutant E376Q (human norovirus GII.4). Kind of test: immunofluorescence on Vero cells.
For test [2], the target named is MD2004 VP1 mutant G340A (human norovirus GII.4). Description: immunofluorescence on Vero cells.
In test [3] the target is MD2004 VP1 mutant V389I (human norovirus GII.4). Kind of test: immunofluorescence on Vero cells.
Test [4] concerns the target MD2004 VP1 mutant at amino acid 294 (human norovirus GII.4). Description: immunofluorescence on Vero cells.
The target in test [5] is MD2004 VP1 mutant N368T (human norovirus GII.4). Kind of test: immunofluorescence on Vero cells.
The target of test [6] is MD2004 VP1 double mutant G340A/E376Q (human norovirus GII.4). Description: immunofluorescence on Vero cells; ELISA on mutant VLP. (In an ELISA, binding on a coated surface is turned into a signal by an enzyme label.)
Test [7] concerns the target Hu/NoV/GII.1/Hawaii/1971/U.S. VLP (human norovirus GII.1). Kind of test: VLP ELISA.
For test [8], the target named is Hu/NoV/Snow Mountain/GII.2/U.S. VLP (human norovirus GII.2). Description: VLP ELISA.
The target in test [9] is Hu/NoV/GII.3/Maizuru/2000/JP VLP (human norovirus GII.3). Kind of test: VLP ELISA.
The target in test [10] is Hu/NoV/GII.7/DC119/U.S. VLP (human norovirus GII.7). Description: VLP ELISA.
Test [11] deals with Hu/NoV/GII.2/Henryton/1971/U.S. VLP (human norovirus GII.2). Description: VLP ELISA.
The target of test [12] is Hu/NoV/GI.6/Hesse/1997/GE VLP (human norovirus GI.6). Description: VLP ELISA.
Test [13] deals with Hu/GII.6/Bethesda/2012/U.S. VLP (human norovirus GII.6). Description: VLP ELISA.

These are yes or no findings as the source states them, for the method shown. For some of these results: Binding can be weak; no strength is given.

B1: VHH 16 (VHH)
VHH: QVKLQQSGGGLVQPGGSLRLTCAASGFPFSTYAIRWVRRPPGKGLEWVSTIHPDFTTNYADSVSRRFTISRDNAKNTVYLQMNSLKPEDTAVYYCSRGVSGERGQGTQVTVSS
For the molecule B1, the binding entry in test [1] was “no binding”; in [2] it was “no binding”; in [3] it was “binds”; in [4], “binds”; in test [5], “binds”; in test [6], “no binding”. Further, the binding entry in test [7], in test [8], in test [9], in test [10], in [11] and in test [12] was “no binding” throughout. For the same molecule, in test [13], the binding entry is listed as “no binding”.
